From patent US10292393B2, “Mitigation of alternate bearing” (The Regents of the University of California, priority 2009, dated 2019)

System: ‘Fina Sodea’ Clementine mandarin trees
Settings: 200 trees per acre, 3-year average FOB prices

SMILES: Nc1ncnc2c1ncn2[C@@H]1O[C@H](CO)[C@@H](O)[C@H]1O [Ado, 9-beta-D-adenosine]
- Fruit value (cumulative income), Jumbo: 1149.50 a US$/acre
- Fruit value (cumulative income), L + J + Ma: 3995.60 a US$/acre
- Fruit value (cumulative income), Large: 2584.10 a US$/acre
- Fruit value (cumulative income), Mammoth: 262.10 US$/acre
- Fruit value (cumulative income), Medium: 2522.40 US$/acre
- Fruit value (cumulative income), Small: 1497.80 US$/acre
- Fruit value (cumulative income), Totally (sum of small to mammoth): 8015.80 US$/acre
